For two molecules, inhibition results are on record in PubChem BioAssay AID602330 (Sanford-Burnham Center for Chemical Genomics, 2012).

Protein sequences, listed by entry. Tags and fused reporters are not part of them. Lines headed by an entry give the natural chain unless they say otherwise; changes in a name come on top.
UniProt P08253: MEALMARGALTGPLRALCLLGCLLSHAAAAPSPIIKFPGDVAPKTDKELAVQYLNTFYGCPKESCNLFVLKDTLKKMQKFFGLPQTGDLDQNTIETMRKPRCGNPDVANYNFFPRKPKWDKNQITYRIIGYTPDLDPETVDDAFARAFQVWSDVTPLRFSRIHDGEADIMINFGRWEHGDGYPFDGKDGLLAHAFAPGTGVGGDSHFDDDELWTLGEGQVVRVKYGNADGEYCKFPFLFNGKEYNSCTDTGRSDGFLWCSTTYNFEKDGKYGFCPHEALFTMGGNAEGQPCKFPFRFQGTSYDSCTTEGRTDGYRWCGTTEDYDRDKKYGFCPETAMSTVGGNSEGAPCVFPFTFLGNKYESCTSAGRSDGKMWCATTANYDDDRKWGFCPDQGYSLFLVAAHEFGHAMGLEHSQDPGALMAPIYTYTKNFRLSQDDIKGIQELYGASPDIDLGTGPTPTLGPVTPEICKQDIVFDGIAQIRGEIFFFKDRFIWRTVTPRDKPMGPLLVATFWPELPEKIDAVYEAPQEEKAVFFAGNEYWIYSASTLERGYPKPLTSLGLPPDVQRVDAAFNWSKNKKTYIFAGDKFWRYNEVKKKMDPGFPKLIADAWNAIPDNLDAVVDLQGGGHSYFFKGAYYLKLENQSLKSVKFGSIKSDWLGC

The whole screen tested about 1,900 compounds, of which about 85 (4%) were called active. Rule as the data show it: active = inhibition above about 40%; inactive = the rest. The list shows a part of the results, in another mix than the full data.

This assay addresses 72 kDa type IV collagenase (Homo sapiens) (UniProt P08253). As to the kind of experiment: inhibitors of human MMP-2 protease – biochemical, fluorescence, single concentration, counter-screen for RPN11 inhibitor project, confirmation (AID 602330).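 Also: human MMP-2 activated beforehand with APMA.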 The conditions noted are these: recombinant MMP-2, FRET peptide cleavage fluorescence; at 20 µM; stronger effect = higher value. On the technique in general: A counterscreen serves to expose hits that act by an unwanted route or on another target.
In general, inhibition refers to how much of the control response was suppressed. Take `Cc1ccc(/C=C2\C(=O)NC(=S)N(c3ccc(F)cc3)C2=O)o1`: the inhibition was active: 54.9%.

On to `Cc1cccc(N2C(=O)NC(=O)/C(=C\c3cnn(-c4ccccc4)c3)C2=O)c1`, for which the inhibition was inactive: 39.2%.
